From the supplement of paper PMC10849652
This is one part of the list.

Protein sequences, listed by entry. Tags and fused reporters are not part of them. Lines headed by an entry give the natural chain unless they say otherwise; changes in a name come on top.
UniProt P0C7T5: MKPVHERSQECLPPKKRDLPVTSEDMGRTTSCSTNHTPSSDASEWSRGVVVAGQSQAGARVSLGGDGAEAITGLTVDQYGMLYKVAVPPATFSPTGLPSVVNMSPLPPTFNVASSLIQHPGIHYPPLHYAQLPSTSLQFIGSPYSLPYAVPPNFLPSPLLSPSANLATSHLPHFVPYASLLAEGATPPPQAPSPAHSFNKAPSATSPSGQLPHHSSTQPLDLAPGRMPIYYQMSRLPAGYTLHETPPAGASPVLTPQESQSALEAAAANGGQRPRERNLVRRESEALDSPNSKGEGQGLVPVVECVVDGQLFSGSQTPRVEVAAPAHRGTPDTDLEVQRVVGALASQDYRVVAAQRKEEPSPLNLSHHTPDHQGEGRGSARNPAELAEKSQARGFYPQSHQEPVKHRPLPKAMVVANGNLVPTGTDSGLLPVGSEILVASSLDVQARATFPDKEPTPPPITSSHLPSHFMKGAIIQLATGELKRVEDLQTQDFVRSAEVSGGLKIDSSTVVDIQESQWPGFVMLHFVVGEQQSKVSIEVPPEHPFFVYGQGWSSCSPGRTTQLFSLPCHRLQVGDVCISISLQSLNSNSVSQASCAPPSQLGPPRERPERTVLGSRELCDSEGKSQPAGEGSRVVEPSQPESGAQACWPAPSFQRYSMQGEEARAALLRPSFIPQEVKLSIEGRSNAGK
UniProt Q6P4H8: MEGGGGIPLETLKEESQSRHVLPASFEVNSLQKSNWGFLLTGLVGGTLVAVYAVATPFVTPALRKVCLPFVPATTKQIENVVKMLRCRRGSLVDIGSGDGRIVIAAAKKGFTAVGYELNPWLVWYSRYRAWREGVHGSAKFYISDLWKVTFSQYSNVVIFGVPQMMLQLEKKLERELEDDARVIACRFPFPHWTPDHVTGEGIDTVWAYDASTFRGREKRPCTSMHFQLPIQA
UniProt Q96DX5: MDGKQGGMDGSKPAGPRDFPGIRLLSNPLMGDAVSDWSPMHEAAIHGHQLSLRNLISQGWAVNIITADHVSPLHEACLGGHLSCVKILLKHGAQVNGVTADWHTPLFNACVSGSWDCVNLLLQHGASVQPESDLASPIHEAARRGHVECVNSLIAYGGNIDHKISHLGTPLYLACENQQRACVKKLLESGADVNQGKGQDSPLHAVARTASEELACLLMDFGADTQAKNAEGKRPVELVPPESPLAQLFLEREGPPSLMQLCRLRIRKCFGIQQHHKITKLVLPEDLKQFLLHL
UniProt Q76L83: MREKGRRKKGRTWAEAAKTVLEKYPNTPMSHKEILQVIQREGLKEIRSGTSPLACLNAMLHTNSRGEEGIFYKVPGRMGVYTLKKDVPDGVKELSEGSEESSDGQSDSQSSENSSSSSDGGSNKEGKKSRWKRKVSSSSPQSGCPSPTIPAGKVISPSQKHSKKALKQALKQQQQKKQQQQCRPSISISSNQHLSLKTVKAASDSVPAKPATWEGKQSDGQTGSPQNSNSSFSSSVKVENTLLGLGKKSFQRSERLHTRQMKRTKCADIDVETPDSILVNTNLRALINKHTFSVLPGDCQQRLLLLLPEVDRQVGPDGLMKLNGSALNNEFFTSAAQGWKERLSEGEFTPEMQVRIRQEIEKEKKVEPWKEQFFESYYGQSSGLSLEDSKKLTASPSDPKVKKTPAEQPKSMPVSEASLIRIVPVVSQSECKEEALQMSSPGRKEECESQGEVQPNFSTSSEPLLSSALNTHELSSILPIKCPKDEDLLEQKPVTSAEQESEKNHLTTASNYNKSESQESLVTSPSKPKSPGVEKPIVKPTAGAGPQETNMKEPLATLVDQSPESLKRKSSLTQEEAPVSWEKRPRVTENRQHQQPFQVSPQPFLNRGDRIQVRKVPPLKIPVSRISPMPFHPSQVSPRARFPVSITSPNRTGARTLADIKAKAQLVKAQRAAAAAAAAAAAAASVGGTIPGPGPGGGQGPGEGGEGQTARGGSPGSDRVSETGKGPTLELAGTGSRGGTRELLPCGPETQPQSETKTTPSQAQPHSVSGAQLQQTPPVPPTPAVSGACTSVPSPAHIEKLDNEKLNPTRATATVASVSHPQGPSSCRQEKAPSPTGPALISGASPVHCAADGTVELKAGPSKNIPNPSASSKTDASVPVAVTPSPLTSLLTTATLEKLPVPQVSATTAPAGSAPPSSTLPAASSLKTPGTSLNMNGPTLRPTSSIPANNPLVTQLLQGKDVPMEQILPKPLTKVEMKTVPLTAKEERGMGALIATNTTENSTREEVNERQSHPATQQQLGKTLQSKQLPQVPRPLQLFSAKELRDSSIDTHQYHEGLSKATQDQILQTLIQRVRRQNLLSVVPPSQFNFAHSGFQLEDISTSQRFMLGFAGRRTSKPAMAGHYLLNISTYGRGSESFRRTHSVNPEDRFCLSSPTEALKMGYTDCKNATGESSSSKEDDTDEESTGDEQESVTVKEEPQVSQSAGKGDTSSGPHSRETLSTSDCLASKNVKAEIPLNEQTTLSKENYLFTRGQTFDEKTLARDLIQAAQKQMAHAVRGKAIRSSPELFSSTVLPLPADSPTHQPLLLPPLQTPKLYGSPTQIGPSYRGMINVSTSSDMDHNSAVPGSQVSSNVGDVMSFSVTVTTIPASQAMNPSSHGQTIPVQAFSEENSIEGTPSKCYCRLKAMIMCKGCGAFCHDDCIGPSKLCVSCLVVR
UniProt Q9UN42: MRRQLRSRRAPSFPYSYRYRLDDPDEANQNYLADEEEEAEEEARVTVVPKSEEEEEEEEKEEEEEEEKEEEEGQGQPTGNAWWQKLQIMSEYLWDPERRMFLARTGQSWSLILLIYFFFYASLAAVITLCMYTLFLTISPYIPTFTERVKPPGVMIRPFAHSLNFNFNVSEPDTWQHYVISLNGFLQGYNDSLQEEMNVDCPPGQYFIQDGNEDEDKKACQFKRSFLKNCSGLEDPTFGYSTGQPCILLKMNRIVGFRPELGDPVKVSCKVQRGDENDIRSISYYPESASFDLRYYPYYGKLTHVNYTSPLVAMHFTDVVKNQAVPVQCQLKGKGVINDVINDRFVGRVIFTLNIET
UniProt Q53RT3: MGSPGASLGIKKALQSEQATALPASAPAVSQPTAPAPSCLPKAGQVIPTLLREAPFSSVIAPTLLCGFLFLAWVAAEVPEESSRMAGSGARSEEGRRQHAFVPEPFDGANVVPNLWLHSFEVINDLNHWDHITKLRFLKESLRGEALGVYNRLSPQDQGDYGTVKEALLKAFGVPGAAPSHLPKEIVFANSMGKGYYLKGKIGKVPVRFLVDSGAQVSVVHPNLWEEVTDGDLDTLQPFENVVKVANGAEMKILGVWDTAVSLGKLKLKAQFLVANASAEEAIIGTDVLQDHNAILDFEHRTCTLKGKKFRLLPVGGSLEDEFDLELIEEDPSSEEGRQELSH
UniProt O95260: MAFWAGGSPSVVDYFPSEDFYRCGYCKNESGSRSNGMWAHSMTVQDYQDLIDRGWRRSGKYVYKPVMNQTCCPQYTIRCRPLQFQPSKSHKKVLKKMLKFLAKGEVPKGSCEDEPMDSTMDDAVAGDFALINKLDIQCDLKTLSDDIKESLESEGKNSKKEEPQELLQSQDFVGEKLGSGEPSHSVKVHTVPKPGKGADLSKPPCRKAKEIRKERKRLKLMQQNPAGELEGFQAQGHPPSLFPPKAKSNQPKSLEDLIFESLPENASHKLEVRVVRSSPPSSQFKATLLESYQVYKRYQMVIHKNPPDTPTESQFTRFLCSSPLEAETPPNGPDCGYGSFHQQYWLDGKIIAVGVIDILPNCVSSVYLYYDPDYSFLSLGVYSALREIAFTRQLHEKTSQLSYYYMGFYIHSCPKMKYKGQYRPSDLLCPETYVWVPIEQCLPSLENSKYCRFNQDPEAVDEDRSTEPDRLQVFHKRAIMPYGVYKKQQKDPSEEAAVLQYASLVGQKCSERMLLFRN
UniProt Q96NS5: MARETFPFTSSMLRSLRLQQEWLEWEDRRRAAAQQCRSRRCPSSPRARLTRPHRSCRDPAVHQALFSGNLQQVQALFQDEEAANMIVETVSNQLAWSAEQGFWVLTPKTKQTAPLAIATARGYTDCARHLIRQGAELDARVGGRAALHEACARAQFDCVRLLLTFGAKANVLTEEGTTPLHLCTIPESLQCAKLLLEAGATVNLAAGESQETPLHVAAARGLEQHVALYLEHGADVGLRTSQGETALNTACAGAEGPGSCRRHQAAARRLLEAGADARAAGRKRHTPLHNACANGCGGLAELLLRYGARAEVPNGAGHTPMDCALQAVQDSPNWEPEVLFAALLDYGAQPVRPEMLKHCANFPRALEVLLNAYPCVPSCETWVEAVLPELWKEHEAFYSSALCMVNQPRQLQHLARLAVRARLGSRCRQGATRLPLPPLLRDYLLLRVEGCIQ
UniProt B2RBV5: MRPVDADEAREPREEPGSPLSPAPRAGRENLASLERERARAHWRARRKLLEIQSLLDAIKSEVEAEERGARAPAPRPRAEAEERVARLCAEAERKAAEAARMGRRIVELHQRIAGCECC
UniProt Q9NWL6: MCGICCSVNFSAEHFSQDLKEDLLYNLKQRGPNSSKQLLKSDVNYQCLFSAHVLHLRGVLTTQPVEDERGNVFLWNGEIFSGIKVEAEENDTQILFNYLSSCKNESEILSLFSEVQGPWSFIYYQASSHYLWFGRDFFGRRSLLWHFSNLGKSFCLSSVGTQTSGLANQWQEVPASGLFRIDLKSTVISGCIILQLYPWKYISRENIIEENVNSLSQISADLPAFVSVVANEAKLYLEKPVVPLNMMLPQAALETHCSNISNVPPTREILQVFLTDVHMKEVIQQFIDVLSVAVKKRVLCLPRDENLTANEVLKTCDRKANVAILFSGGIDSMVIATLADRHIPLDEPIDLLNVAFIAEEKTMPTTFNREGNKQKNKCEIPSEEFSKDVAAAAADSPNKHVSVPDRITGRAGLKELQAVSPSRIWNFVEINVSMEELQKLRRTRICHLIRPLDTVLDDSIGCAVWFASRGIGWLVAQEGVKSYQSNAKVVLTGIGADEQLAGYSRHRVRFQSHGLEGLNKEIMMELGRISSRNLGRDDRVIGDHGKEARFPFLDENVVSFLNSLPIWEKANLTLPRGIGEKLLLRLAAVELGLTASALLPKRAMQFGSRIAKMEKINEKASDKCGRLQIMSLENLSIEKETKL
UniProt Q93050, whole entry, looked up: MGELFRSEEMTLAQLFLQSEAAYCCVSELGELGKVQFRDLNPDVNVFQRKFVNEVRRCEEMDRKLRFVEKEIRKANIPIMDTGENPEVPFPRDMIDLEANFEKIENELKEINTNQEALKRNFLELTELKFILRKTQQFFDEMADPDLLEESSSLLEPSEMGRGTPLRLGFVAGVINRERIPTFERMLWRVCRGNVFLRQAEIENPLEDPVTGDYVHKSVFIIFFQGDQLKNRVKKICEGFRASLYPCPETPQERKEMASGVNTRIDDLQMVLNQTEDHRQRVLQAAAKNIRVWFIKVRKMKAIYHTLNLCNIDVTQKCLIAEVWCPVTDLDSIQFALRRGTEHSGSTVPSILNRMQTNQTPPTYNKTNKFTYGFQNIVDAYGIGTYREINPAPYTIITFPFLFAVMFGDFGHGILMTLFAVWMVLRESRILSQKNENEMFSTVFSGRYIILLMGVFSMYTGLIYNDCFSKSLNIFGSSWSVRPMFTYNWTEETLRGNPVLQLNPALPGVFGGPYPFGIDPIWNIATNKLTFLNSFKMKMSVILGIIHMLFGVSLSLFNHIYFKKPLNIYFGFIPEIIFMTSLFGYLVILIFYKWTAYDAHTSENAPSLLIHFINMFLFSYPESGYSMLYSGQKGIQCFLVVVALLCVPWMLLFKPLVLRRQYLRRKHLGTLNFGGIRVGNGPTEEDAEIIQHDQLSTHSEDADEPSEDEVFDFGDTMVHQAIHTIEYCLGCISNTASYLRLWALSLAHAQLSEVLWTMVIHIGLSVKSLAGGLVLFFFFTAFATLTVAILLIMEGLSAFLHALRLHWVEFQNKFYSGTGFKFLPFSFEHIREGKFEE
UniProt Q2TB18: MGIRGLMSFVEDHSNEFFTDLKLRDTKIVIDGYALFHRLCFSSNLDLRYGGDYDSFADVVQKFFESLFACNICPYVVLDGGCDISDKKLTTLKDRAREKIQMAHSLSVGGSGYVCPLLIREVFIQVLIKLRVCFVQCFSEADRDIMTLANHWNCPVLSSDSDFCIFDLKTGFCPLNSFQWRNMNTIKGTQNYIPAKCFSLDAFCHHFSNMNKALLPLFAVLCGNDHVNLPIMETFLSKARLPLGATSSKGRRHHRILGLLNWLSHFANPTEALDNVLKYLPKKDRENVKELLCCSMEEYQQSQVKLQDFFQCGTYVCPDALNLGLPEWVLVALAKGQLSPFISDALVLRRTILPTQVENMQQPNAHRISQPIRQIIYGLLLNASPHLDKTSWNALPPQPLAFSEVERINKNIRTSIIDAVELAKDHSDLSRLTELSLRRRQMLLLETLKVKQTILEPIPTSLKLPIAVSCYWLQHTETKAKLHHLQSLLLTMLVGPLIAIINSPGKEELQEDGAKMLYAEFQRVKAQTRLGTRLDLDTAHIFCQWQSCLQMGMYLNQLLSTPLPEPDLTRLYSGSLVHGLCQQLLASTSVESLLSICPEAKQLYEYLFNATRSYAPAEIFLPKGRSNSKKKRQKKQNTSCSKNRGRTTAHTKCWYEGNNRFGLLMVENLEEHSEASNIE

Assays:
Experiment in all cases: log2 fold change, soluble protein after heating vs DMSO (PISA); higher = thermal stabilisation; K562 lysate, 10 uM; active = over 0.2 and 3.5 SD of the protein, either way, in both replicates (recomputed)
[1] = compound: C/C(=N\NC(=O)C1=CC(=CC=C1)S(=O)(=O)N2CCOCC2)/C3=C(C=CC(=C3)Cl)O
Outline: (§1)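 Quantification was by TMTpro 16plex LC-MS/MS with equalised channel sums, applied to the supernatant after 21,000xg for 90 min. Samples were crude K562 extract at 1 mg/mL protein in PBS pH 7.4 with 1 mM MgCl2, treated with 10 μM compound for 30 min, heated for 3 min across 48°C-58°C, pooled and brought to 0.5% NP-40 at 4°C. Values are log-two fold changes in thermal stability relative to solvent controls, from duplicates.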

[2] = compound: C1=CC2=C(C=CC(=C2)/C=C\3/C(=O)NC(=NCC4=CC=CS4)S3)N=C1
Outline: as §1

[3] = compound: C1=CC2=NC=CN=C2C=C1/C=C/3\C(=O)NC(=O)S3
Outline: as §1

[4] = compound: C1=CC=C(C=C1)C2=NC(=C(N2)C3=CC=NC=C3)C4=CC(=C(C=C4)Cl)O
Outline: as §1

[5] = compound: C1=CC=C2C(=C1)C3=NNC4=CC=CC(=C43)C2=O
Outline: as §1

[6] = compound: C1CCN(C1)C(=O)NC2=CC=CC(=C2)NC3=NC=C(C(=N3)NCCC4=CN=CN4)Br
Outline: as §1

[7] = compound: C1CN(CCC1(CC2=CC=C(C=C2)Cl)N)C3=NC=NC4=C3C=CN4
Outline: as §1

IRAK-1-4 Inhibitor I = compound: C1COCCN1CCN2C3=CC=CC=C3N=C2NC(=O)C4=CC(=CC=C4)[N+](=O)[O-] [IRAK-1-4 Inhibitor I]
Outline: as §1

ibrutinib = compound: C=CC(=O)N1CCC[C@@H](n2nc(-c3ccc(Oc4ccccc4)cc3)c3c(N)ncnc32)C1 [ibrutinib]
Outline: as §1

ralimetinib = compound: CC(C)(C)Cn1c(N)nc2ccc(-c3[nH]c(C(C)(C)C)nc3-c3ccc(F)cc3)nc21 [ralimetinib]
Outline: as §1

[8] = compound: CC(C)(O)CC(=O)NCCn1ccc2ncnc(Nc3ccc(Oc4cccc(C(F)(F)F)c4)c(Cl)c3)c21
Outline: as §1

[9] = compound: CC1=C(C(CC(=O)N1)C2=CC=C(C=C2)C(F)(F)F)C(=O)NC3=C(C=C4C(=C3)C=NN4)F
Outline: as §1

[10] = compound: CC1=C(C=C(C=C1)NC(=O)C2=CC(=CC=C2)C(C)(C)C#N)NC3=CC4=C(C=C3)N=CN(C4=O)C
Outline: as §1

[11] = compound: CC1=C(C=C(C=C1)NC(=O)C2=CC(=CC=C2)N(C)C)NC(=O)C3=CC=C(C=C3)O
Outline: as §1

erlotinib = compound: C#Cc1cccc(Nc2ncnc3cc(OCCOC)c(OCCOC)cc23)c1 [erlotinib]
Outline: as §1

[12] = compound: C1=CC(=CC=C1C2=NC3=C(N2)C=C(C=C3)C(=O)N)OC4=CC=C(C=C4)Cl
Outline: as §1

[13] = compound: CC(=O)c1cnc2ccc(-c3cc(Cl)c(O)c(Cl)c3)nc2c1N[C@H]1CC[C@H](CN(C)C)CC1
Outline: as §1

[14] = compound: CC(C)C1=C2N=C(C=C(N2N=C1)NCC3=CC=CC=C3)NCCCCCCN
Outline: as §1

[15] = compound: CC1=C(C2=C(C=C1)C(=O)C3=CC=CC=C3N2CCCN)C
Outline: as §1

[16] = compound: CC1=CC=C(C=C1)SC2=C3C=C(SC3=CN=C2)C(=O)N
Outline: as §1

Measured: log2 fold change

ATXN1L (UniProt P0C7T5)
inactive: [1] 0.101 | [2] -0.016 | [3] 0.02 | [4] 0.001 | [5] -0.038 | [6] 0.03 | [7] -0.143 | IRAK-1-4 Inhibitor I 0.017 | ibrutinib 0.031 | ralimetinib 0.018 | [8] -0.044 | [9] -0.109 | [10] -0.025 | [11] -0.015

ATP5F1B (UniProt H0YI37)
inactive: erlotinib 0.44 | [12] 0.43 | [3] -0.17 | [4] 0.015 | IRAK-1-4 Inhibitor I 0.24 | ibrutinib -0.178 | [13] -0.088 | ralimetinib -0.548 | [8] -0.358 | [14] -0.058 | [9] -0.134 | [15] -0.343 | [10] 0.973 | [11] -0.327 | [16] -0.054

ATXN2 (UniProt F8WB06)
inactive: [15] 0.187

ATAD2B (UniProt Q9ULI0)
inactive: [3] -0.455 | [4] 0.015 | IRAK-1-4 Inhibitor I -0.142 | ibrutinib -0.027 | ralimetinib -0.044 | [8] -0.28 | [11] -0.024

ASXL3 (UniProt Q9C0F0)
inactive: erlotinib -0.057 | [12] -0.068 | [4] 0.044 | IRAK-1-4 Inhibitor I -0.079 | [13] -0.055 | ralimetinib 0.206 | [8] 0.132 | [14] -0.006 | [10] -0.013 | [11] 0.09 | [16] 0.049

ATG2A (UniProt Q2TAZ0)
inactive: erlotinib 0.169 | [12] 0.087 | [3] -0.097 | [4] -0.01 | IRAK-1-4 Inhibitor I 0.097 | ibrutinib -0.106 | [13] -0.303 | ralimetinib -0.051 | [8] -0.092 | [14] -0.365 | [9] 0.137 | [11] 0.08 | [16] 0.128

ATG4D (UniProt Q86TL0)
inactive: [3] 0.072 | [4] 0.049 | [6] 0.047 | [7] -0.074 | IRAK-1-4 Inhibitor I -0.142 | ibrutinib -0.086 | ralimetinib 0.049 | [8] 0.074 | [15] 0.319 | [10] -0.096 | [11] -0.052

ATAD5 (UniProt Q96QE3)
inactive: erlotinib -0.071 | [12] -0.012 | [6] 0.028 | [7] -0.062 | [14] 0.106 | [9] -0.016

ATPSCKMT (UniProt Q6P4H8)
inactive: [3] 0 | [4] 0.075 | [6] -0.074 | [7] -0.006 | IRAK-1-4 Inhibitor I -0.046 | ibrutinib -0.042 | ralimetinib -0.15 | [8] 0.088 | [15] 0.019 | [10] -0.015 | [11] -0.001

ASS1 (UniProt P00966)
inactive: erlotinib -0.013 | [12] -0.086 | [3] -0.003 | [4] 0.001 | [6] 0.032 | [7] 0.02 | IRAK-1-4 Inhibitor I 0.001 | ibrutinib 0.031 | [13] 0.052 | ralimetinib 0.007 | [8] 0.022 | [14] 0.005 | [9] 0.014 | [15] 0.013 | [10] -0.048 | [11] -0.01 | [16] -0.002

ATP11C, A0A067XG54
inactive: erlotinib 0.024 | [12] -0.026 | [3] -0.006 | [4] 0.013 | IRAK-1-4 Inhibitor I 0.078 | ibrutinib 0.039 | [13] 0.051 | ralimetinib -0.081 | [8] -0.023 | [14] -0.011 | [15] 0.018 | [10] 0.02 | [11] 0.046 | [16] 0.111

B3GNTL1 (UniProt Q67FW5)
inactive: [3] -0.097 | [4] -0.098 | [6] 0.197 | [7] 0.115 | IRAK-1-4 Inhibitor I 0.125 | ibrutinib 0.109 | [13] -0.126 | ralimetinib -0.118 | [8] -0.093 | [10] -0.034 | [11] 0.002 | [16] 0.023

ASB9 (UniProt Q96DX5)
inactive: erlotinib 0.296 | [12] -0.344 | [13] -0.049 | [14] -0.19 | [16] 0.001

ATP5F1B (UniProt F8W079)
inactive: [3] -0.048 | [6] 0.003 | [7] -0.076 | ibrutinib 0.176 | [13] 0.014 | [9] 0.312 | [16] 0.035

ASXL2 (UniProt Q76L83)
inactive: erlotinib 0.081 | [12] 0.036 | [3] -0.153 | [4] -0.007 | IRAK-1-4 Inhibitor I -0.062 | ibrutinib -0.002 | [13] -0.045 | ralimetinib 0.115 | [8] 0.034 | [14] -0.042 | [15] 0.04 | [10] 0.13 | [11] 0.002 | [16] 0

ATP1B4 (UniProt Q9UN42)
inactive: [4] -0.038 | IRAK-1-4 Inhibitor I -0.101 | [13] -0.041 | ralimetinib 0.042 | [8] 0.139 | [15] 0.006 | [10] -0.03 | [11] 0.03 | [16] -0.097

ASPRV1 (UniProt Q53RT3)
inactive: erlotinib -0.014 | [12] -0.139 | [14] 0.286

ATF6B (UniProt Q99941)
inactive: [10] 0.222

ATXN7L2 (UniProt Q5T6C5)
inactive: [1] 0.035 | [2] -0.271 | [5] -0.044

ATE1 (UniProt O95260)
inactive: [3] 0.005 | ibrutinib 0.081 | [13] -0.025 | [10] -0.101 | [16] -0.022

ATF6 (UniProt P18850)
inactive: erlotinib -0.102 | [12] -0.102 | [4] -0.251 | [6] 0.115 | [7] 0.307 | IRAK-1-4 Inhibitor I 0.007 | ralimetinib 0.04 | [8] -0.267 | [14] 0.3 | [11] 0.073

ASB16 (UniProt Q96NS5)
inactive: [13] -0.487 | [15] -0.097 | [10] 0.282 | [16] -0.16

ATP1B1 (UniProt P05026)
inactive: erlotinib -0.01 | [12] 0.057 | [3] -0.019 | [4] -0.014 | IRAK-1-4 Inhibitor I 0.088 | ibrutinib 0.025 | [13] 0.086 | ralimetinib 0.034 | [8] -0.037 | [14] -0.043 | [9] 0.124 | [15] 0.001 | [10] -0.006 | [11] -0.005 | [16] -0.006

NA (UniProt B2RBV5)
inactive: erlotinib -0.145 | [12] -0.025 | [3] 0.052 | [6] -0.032 | [7] 0.073 | ibrutinib -0.079 | [13] -0.071 | [14] 0.143 | [9] 0.056 | [10] 0.031 | [16] -0.09

ASB3 isoform 3 (UniProt Q9Y575)
inactive: [1] 0.293 | [2] -0.059 | [3] 0.243 | [5] -0.119 | [6] 0.12 | [7] 0.054 | ibrutinib -0.132 | [9] -0.082

ASNSD1 (UniProt Q9NWL6)
inactive: erlotinib 0.053 | [12] -0.028 | [3] -0.004 | [6] 0.024 | [7] 0.025 | ibrutinib -0.023 | [14] -0.056 | [9] -0.01

ATP2C1 isoform 3 (UniProt P98194)
inactive: erlotinib 0.035 | [12] -0.129 | [4] 0.076 | IRAK-1-4 Inhibitor I 0.121 | ralimetinib 0.074 | [8] 0.064 | [14] 0 | [11] 0.055

B3GALT6 (UniProt Q96L58)
inactive: erlotinib 0.074 | [12] -0.04 | [3] 0.022 | [4] -0.028 | IRAK-1-4 Inhibitor I -0.049 | ibrutinib -0.025 | ralimetinib 0.065 | [8] 0.23 | [14] -0.025 | [15] -0.112 | [10] -0.168 | [11] -0.046

ATP6V0A1 (UniProt Q93050)
inactive: erlotinib 0.112 | [12] 0.061 | [3] 0.072 | [4] 0.067 | IRAK-1-4 Inhibitor I -0.015 | ibrutinib -0.018 | [13] -0.145 | ralimetinib 0.02 | [8] 0.19 | [14] 0.041 | [15] 0.103 | [10] -0.048 | [11] -0.116 | [16] -0.104

Reprinted at random: 2 records from the list, in no set order.
ASNSD1 (UniProt Q9NWL6)
inactive: erlotinib 0.053 | [12] -0.028 | [3] -0.004 | [6] 0.024 | [7] 0.025 | ibrutinib -0.023 | [14] -0.056 | [9] -0.01

B3GALT6 (UniProt Q96L58)
inactive: erlotinib 0.074 | [12] -0.04 | [3] 0.022 | [4] -0.028 | IRAK-1-4 Inhibitor I -0.049 | ibrutinib -0.025 | ralimetinib 0.065 | [8] 0.23 | [14] -0.025 | [15] -0.112 | [10] -0.168 | [11] -0.046

Additional results:

ASTE1 (UniProt Q2TB18)
inactive: [13] 0.025 | [10] 0.033 | [16] -0.159
